# Values from PubChem BioAssay AID1259254 (NCATS, 2017)
# Test: 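Genome-wide screen for genes that prevent DNA re-replication in cancer cells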 (primary screen)
# System: human HCT116 colorectal cancer cells
# Reagents: single siRNA against human genes
# Duration: 3 days
# Measured: 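Nuclei stained with Hoechst and imaged; cell-cycle phase assigned by DNA content; G2 share scaled per plate, non-targeting siRNA 0%, GMNN siRNA 100%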
# Scale: G2 robust z-score and G2 cells, % of GMNN control: higher = more G2 cells, more excess DNA replication; raw share of cells in G2: higher = larger share of cells with G2 DNA content
# Rule for the call: 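An siRNA counts as active if its G2 robust z-score lies at least 5 MADs above the screen median; here such calls match roughly 38% of GMNN control or more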
# The deposit covers about 59,000 reagents; shown is a random part of them. About 1,550 of them (2.6%) were called active. 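G2 share is only a proxy for re-replication; each gene was hit by three separate siRNAs, and active genes were retested.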 Raw values are not corrected between plates. Reagents against one gene are numbered here. The record does not give: the amount of reagent.
target,reagent,G2 robust z-score,"G2 cells, % of GMNN control",raw share of cells in G2 (%),Call
LNX1 (ligand of numb-protein X 1),1,0.126,3.85,5.59,inactive
LNX1 (ligand of numb-protein X 1),2,1.6,14.2,11.3,inactive
LNX1 (ligand of numb-protein X 1),3,-0.981,-3.94,3.33,inactive
FAM24B (family with sequence similarity 24 member B),1,0.203,4.39,5.18,inactive
FAM24B (family with sequence similarity 24 member B),2,0.417,5.9,4.94,inactive
FAM24B (family with sequence similarity 24 member B),3,0.822,8.75,5.53,inactive
ASPHD2 (aspartate beta-hydroxylase domain containing 2),1,0.15,4.03,5.69,inactive
ASPHD2 (aspartate beta-hydroxylase domain containing 2),2,-0.677,-1.8,4.9,inactive
ASPHD2 (aspartate beta-hydroxylase domain containing 2),3,-0.0232,2.8,5.34,inactive
TCL1A (TCL1 family AKT coactivator A),1,0.365,5.54,7.59,inactive
TCL1A (TCL1 family AKT coactivator A),2,0.688,7.81,6.99,inactive
TCL1A (TCL1 family AKT coactivator A),3,-0.584,-1.14,2.95,inactive
YWHAZ,1,3.5,27.6,17.3,inactive
YWHAZ,2,-0.578,-1.1,3.85,inactive
YWHAZ,3,-0.458,-0.255,4.39,inactive
FZD5 (frizzled class receptor 5),1,3.64,28.6,16.1,inactive
FZD5 (frizzled class receptor 5),2,-0.426,-0.0309,4.51,inactive
FZD5 (frizzled class receptor 5),3,0.744,8.2,5.78,inactive
MRPS10 (mitochondrial ribosomal protein S10),1,-0.833,-2.89,3.41,inactive
MRPS10 (mitochondrial ribosomal protein S10),2,-0.0173,2.85,5.32,inactive
MRPS10 (mitochondrial ribosomal protein S10),3,-0.572,-1.06,2.8,inactive
HGF (hepatocyte growth factor),1,-0.281,0.99,5.9,inactive
HGF (hepatocyte growth factor),2,0.71,7.96,7.72,inactive
HGF (hepatocyte growth factor),3,-0.232,1.34,4.41,inactive
TRAF3IP3 (TRAF3 interacting protein 3),1,-1.37,-6.7,3.5,inactive
TRAF3IP3 (TRAF3 interacting protein 3),2,2.31,19.2,12.2,inactive
TRAF3IP3 (TRAF3 interacting protein 3),3,0.292,5.02,5.29,inactive
ABCF2 (ATP binding cassette subfamily F member 2),1,-0.526,-0.731,2.95,inactive
ABCF2 (ATP binding cassette subfamily F member 2),2,-0.367,0.384,5.35,inactive
ABCF2 (ATP binding cassette subfamily F member 2),3,-0.924,-3.53,3.32,inactive
TENT4B (terminal nucleotidyltransferase 4B),1,-0.456,-0.243,4.26,inactive
TENT4B (terminal nucleotidyltransferase 4B),2,0.723,8.05,7.15,inactive
TENT4B (terminal nucleotidyltransferase 4B),3,1.06,10.4,9.95,inactive
SASH3 (SAM and SH3 domain containing 3),1,-0.7,-1.96,2.54,inactive
SASH3 (SAM and SH3 domain containing 3),2,2.01,17.1,9.74,inactive
SASH3 (SAM and SH3 domain containing 3),3,0.839,8.87,8.01,inactive
CLGN (calmegin),1,0.603,7.21,6.32,inactive
CLGN (calmegin),2,0.305,5.11,7.24,inactive
CLGN (calmegin),3,0.0647,3.42,4.35,inactive
SLC16A11,1,-0.0129,2.88,5.91,inactive
SLC16A11,2,-1.33,-6.41,2.9,inactive
SLC16A11,3,0.988,9.92,8.33,inactive
RBM5 (RNA binding motif protein 5),1,-0.418,0.0286,5.71,inactive
RBM5 (RNA binding motif protein 5),2,0.611,7.27,6.19,inactive
RBM5 (RNA binding motif protein 5),3,-0.267,1.09,6.91,inactive
RPP38-DT (RPP38 divergent transcript),1,0.955,9.69,6.29,inactive
RPP38-DT (RPP38 divergent transcript),2,0.147,4,5.03,inactive
RPP38-DT (RPP38 divergent transcript),3,0.728,8.09,5.9,inactive
ARHGAP11A (Rho GTPase activating protein 11A),1,3.78,29.5,18.7,inactive
ARHGAP11A (Rho GTPase activating protein 11A),2,0.107,3.72,5.5,inactive
ARHGAP11A (Rho GTPase activating protein 11A),3,1.92,16.5,9.41,inactive
CMTR2 (cap methyltransferase 2),1,-0.254,1.18,4.98,inactive
CMTR2 (cap methyltransferase 2),2,7.83,58,28.2,active
CMTR2 (cap methyltransferase 2),3,-0.264,1.11,3.49,inactive
RBM24 (RNA binding motif protein 24),1,-0.98,-3.93,3.05,inactive
RBM24 (RNA binding motif protein 24),2,-1.05,-4.41,3.09,inactive
RBM24 (RNA binding motif protein 24),3,2.46,20.2,15.6,inactive
CIMAP1C (ciliary microtubule associated protein 1C),1,-0.397,0.171,3.66,inactive
CIMAP1C (ciliary microtubule associated protein 1C),2,-0.803,-2.68,2.06,inactive
CIMAP1C (ciliary microtubule associated protein 1C),3,0.251,4.73,4.26,inactive
CKS1BP6 (CDC28 protein kinase regulatory subunit 1B pseudogene 6),1,-0.704,-1.99,2.46,inactive
CKS1BP6 (CDC28 protein kinase regulatory subunit 1B pseudogene 6),2,0.0481,3.31,4.39,inactive
CKS1BP6 (CDC28 protein kinase regulatory subunit 1B pseudogene 6),3,1.22,11.5,6.2,inactive
GTPBP10 (GTP binding protein 10),1,-0.028,2.77,6.96,inactive
GTPBP10 (GTP binding protein 10),2,1.46,13.3,10.7,inactive
GTPBP10 (GTP binding protein 10),3,-0.518,-0.677,4.22,inactive
CTRB2 (chymotrypsinogen B2),1,-1.02,-4.18,1.83,inactive
CTRB2 (chymotrypsinogen B2),2,1.33,12.3,7.31,inactive
CTRB2 (chymotrypsinogen B2),3,2.56,21,11.7,inactive
TAB2 (TGF-beta activated kinase 1 (MAP3K7) binding protein 2),1,-0.386,0.252,5.67,inactive
TAB2 (TGF-beta activated kinase 1 (MAP3K7) binding protein 2),2,-1.07,-4.54,3.54,inactive
TAB2 (TGF-beta activated kinase 1 (MAP3K7) binding protein 2),3,0.204,4.4,5.09,inactive
TSSC4 (tumor suppressing subtransferable candidate 4),1,0.443,6.09,8.08,inactive
TSSC4 (tumor suppressing subtransferable candidate 4),2,-0.227,1.37,4.52,inactive
TSSC4 (tumor suppressing subtransferable candidate 4),3,-0.115,2.15,4.19,inactive
PRR3 (proline rich 3),1,-0.474,-0.367,4.29,inactive
PRR3 (proline rich 3),2,1.3,12.1,9.6,inactive
PRR3 (proline rich 3),3,1.24,11.7,5.57,inactive
HACD4 (3-hydroxyacyl-CoA dehydratase 4),1,6.82,51,22.3,active
HACD4 (3-hydroxyacyl-CoA dehydratase 4),2,0.41,5.85,5.84,inactive
HACD4 (3-hydroxyacyl-CoA dehydratase 4),3,-0.66,-1.68,4.09,inactive
HMGN1 (high mobility group nucleosome binding domain 1),1,-0.52,-0.692,3.95,inactive
HMGN1 (high mobility group nucleosome binding domain 1),2,-0.243,1.25,6.16,inactive
HMGN1 (high mobility group nucleosome binding domain 1),3,0.679,7.74,7.86,inactive
NADSYN1 (NAD synthetase 1),1,-1.23,-5.7,2.4,inactive
NADSYN1 (NAD synthetase 1),2,-0.0347,2.72,5.47,inactive
NADSYN1 (NAD synthetase 1),3,-1.07,-4.56,4.43,inactive
